Laboratory results taken from patent US20030114402A1, “Modulators of DNA cytosine-5 methyltransferase and methods for use thereof” (The Regents of the University of California, priority 1997, published 2003).
Some results were stated once for a whole list of compounds, not compound by compound.

Test system: mouse erythroleukemia (MEL) cells
Test: Anti-proliferative effects on MEL cells
Assay type: cell-based
Conditions: light microscope

Question: How did the “concentration inducing MEL cells to produce small refractory particles” value turn out when “GC-box p^MET: SEQ ID NO:10 with a phosphorothioate backbone (DNA CTGGATCCTTGCCCCGCCCCTTGAATTCCC; listed as DNA, chemistry not fully specified)” was run?
Answer: exceeding 2.5 micromolar
